Experiments:
[1] = tested on: breast cancer cell line MCF7; assay: MTT cytotoxicity assay, MCF7; type: cell-based; settings: Homo sapiens, MCF7, 72 h, read-out: Cytotoxicity IC50 MCF7
p-PI3K = assay: Phosphorylated PI3K ELISA in MCF7 cells; type: cell-based, human; settings: 4g at its IC50 0.56 μM, compared to untreated MCF7 cells

## CN[C@@H]1C[C@H]2O[C@@](C)([C@@H]1OC)n1c3ccccc3c3c4c(c5c6ccccc6n2c5c31)C(=O)NC4 [Staurosporine, reference compound]
[1]
  IC50: 8.04 ± 0.48 µM
p-PI3K
  inhibition of PI3K phosphorylation: 34.6%

Reference: PMC11420776 (RSC Advances, 2024)
